Results are given in words; binding and its absence hold for the method and conditions named. Binding seen in cells or lysates may run through a third protein. These calls come from enrichment with a bait or labelling near it, and not all partners need be listed.
B1: ZNF614 (protein, UniProt Q8N883 1-585)
chain: MIKTQESLTLEDVAVEFSWEEWQLLDTAQKNLYRDVMVENYNHLVSLGYQTSKPDVLSKLAHGQEPWTTDAKIQNKNCPGIGKVDSHLQEHSPNQRLLKSVQQCNGQNTLRNIVHLSKTHFPIVQNHDTFDLYRKNLKSSLSLINQKRRHGINNPVEFIGGEKTLLHGKHERTHTKTRFSENAKCIHTKFQVFKHQRTQKIEKPHACIECEQTFLRKSQLIYHENICIQENPGSGQCEKLSRSVLFTKHLKTNTTDKICIPNEYRKGSTVKSSLITHQQTHTEEKSYMCSECGKGFTMKRYLIAHQRTHSGEKPYVCKECGKGFTVKSNLIVHQRTHTGEKPYICSECGKGFTMKRYLVVHQRTHTGEKPYMCSECGKGFTVKSNLIVHQRSHTGEKSYICSECGKGFTVKRTLVIHQRTHTGEKSYICNECGKGFTTKRTLIIHQRTHTGEKPYECNECGKAFSQKICLIQHERCHTGKTPFVCTECGKSYSHKYGLITHQRIHTGEKPYECNECGKAFTTKSVLNVHQRTHTGERPYGCSDCEKAFSHLSNLVKHKKMHTREMGRISQVENSCNGESQLLPYK
B2: ZNF655 (protein, UniProt Q8N720 1-491)
chain: MEEIPAQEAAGSPRVQFQSLETQSECLSPEPQFVQDTDMEQGLTGDGETREENKLLIPKQKISEEVHSYKVRVGRLKHDITQVPETREVYKSEDRLERLQEILRKFLYLEREFRQITISKETFTSEKNNECHEPEKSFSLDSTIDADQRVLRIQNTDDNDKYDMSFNQNSASGKHEHLNLTEDFQSSECKESLMDLSHLNKWESIPNTEKSYKCDVCGKIFHQSSALTRHQRIHTREKPYKCKECEKSFSQSSSLSRHKRIHTREKPYKCEASDKSCEASDKSCSPSSGIIQHKKIHTRAKSYKCSSCERVFSRSVHLTQHQKIHKEMPCKCTVCGSDFCHTSYLLEHQRVHHEEKAYEYDEYGLAYIKQQGIHFREKPYTCSECGKDFRLNSHLIQHQRIHTGEKAHECNECGKAFSQTSCLIQHHKMHRKEKSYECNEYEGSFSHSSDLILQQEVLTRQKAFDCDVWEKNSSQRAHLVQHQSIHTKENS
B3: ZNF567 (protein, UniProt Q8N184 1-647)
chain: MAQGSVSFNDVTVDFTQEEWQHLDHAQKTLYMDVMLENYCHLISVGCHMTKPDVILKLERGEEPWTSFAGHTCLEENWKAEDFLVKFKEHQEKYSRSVVSINHKKLVKEKSKIYEKTFTLGKNPVNSKNLPPEYDTHGRILKNVSELIISNLNPARKRLSEYNGYGKSLLSTKQETTHPEVKSHNQSARAFSHNEVLMQYQKTETPAQSFGYNDCEKSFLQRGGLITHSRPYKGENPSVYNKKRRATNIEKKHTCNECGKSFCRKSVLILHQGIHSEEKPYQCHQCGNAFRRKSYLIDHQRTHTGEKPFVCNECGKSFRLKTALTDHQRTHTGEKSYECLQCRNAFRLKSHLIRHQRTHTGEKPYECNDCGKSFRQKTTLSLHQRIHTGEKPYICKECGKSFHQKANLTVHQRTHTGEKPYICNECGKSFSQKTTLALHEKTHNEEKPYICSECGKSFRQKTTLVAHQRTHTGEKSYECPHCGKAFRMKSYLIDHHRTHTGEKPYECNECGKSFSQKTNLNLHQRIHTGEKPYVCNECGKSFRQKATLTVHQKIHTGQKSYECPQCGKAFSRKSYLIHHQRTHTGEKPYKCSECGKCFRQKTNLIVHQRTHTGEKPYVCNECGKSFSYKRNLIVHQRTHKGENIEMQ
B4: ZNF644 (protein, UniProt Q9H582 1-1327)
chain: MRSFLQQDVNKTKSRLNVLNGLANNMDDLKINTDITGAKEELLDDNNFISDKESGVHKPKDCQTSFQKNNTLTLPEELSKDKSENALSGGQSSLFIHAGAPTVSSENFILPKGAAVNGPVSHSSLTKTSNMNKGSVSLTTGQPVDQPTTESCSTLKVAADLQLSTPQKASQHQVLFLLSDVAHAKNPTHSNKKLPTSASVGCDIQNSVGSNIKSDGTLINQVEVGEDGEDLLVKDDCVNTVTGISSGTDGFRSENDTNWDPQKEFIQFLMTNEETVDKAPPHSKIGLEKKRKRKMDVSKITRYTEDCFSDSNCVPNKSKMQEVDFLEQNEELQAVDSQKYALSKVKPESTDEDLESVDAFQHLIYNPDKCGEESSPVHTSTFLSNTLKKKCEESDSESPATFSTEEPSFYPCTKCNVNFREKKHLHRHMMYHLDGNSHFRHLNVPRPYACRECGRTFRDRNSLLKHMIIHQERRQKLMEEIRELKELQDEGRSARLQCPQCVFGTNCPKTFVQHAKTHEKDKRYYCCEECNFMAVTENELECHRGIAHGAVVKCPMVTSDIAQRKTQKKTFMKDSVVGSSKKSATYICKMCPFTTSAKSVLKKHTEYLHSSSCVDSFGSPLGLDKRKNDILEEPVDSDSTKTLTKQQSTTFPKNSALKQDVKRTFGSTSQSSSFSKIHKRPHRIQKARKSIAQSGVNMCNQNSSPHKNVTIKSSVDQKPKYFHQAAKEKSNAKANSHYLYRHKYENYRMIKKSGESYPVHFKKEEASSLNSLHLFSSSSNSHNNFISDPHKPDAKRPESFKDHRRVAVKRVIKESKKESSVGGEDLDSYPDFLHKMTVVVLQKLNSAEKKDSYETEDESSWDNVELGDYTTQAIEDETYSDINQEHVNLFPLFKSKVEGQEPGENATLSYDQNDGFYFEYYEDTGSNNFLHEIHDPQHLETADASLSKHSSVFHWTDLSLEKKSCPYCPATFETGVGLSNHVRGHLHRAGLSYEARHVVSPEQIATSDKMQHFKRTGTGTPVKRVRKAIEKSETTSEHTCQLCGGWFDTKIGLSNHVRGHLKRLGKTKWDAHKSPICVLNEMMQNEEKYEKILKALNSRRIIPRPFVAQKLASSDDFISQNVIPLEAYRNGLKTEALSVSASEEEGLNFLNEYDETKPELPSGKKNQSLTLIELLKNKRMGEERNSAISPQKIHNQTARKRFVQKCVLPLNEDSPLMYQPQKMDLTMHSALDCKQKKSRSRSGSKKKMLTLPHGADEVYILRCRFCGLVFRGPLSVQEDWIKHLQRHIVNANLPRTGAGMVEVTSLLKKPASITETSFSLLMAEAAS
B5: ZNF697 (protein, UniProt Q5TEC3 1-545)
chain: MKQEDNQGVCAHQDSEDKGMGSDFEDSEDREGDPEEREMGSNPHDTNKREGHPEPEMGSNPQDSRHREAVPDICTEGQLSEEEGVSVRGEEDDQSGVADMAMFPGLSESDSISRSLREDDDESAGENRLEEEEEQPAPPVLPWRRHLSLGSRHRGDKPAHRRFHRLHHPMAVDLGELDSLVASIMDAPTICPDCGESFSPGAAFLQHQRIHRLAEAAAAASLEPFGLAGECDAMVGMMGVGVAGGFGAGPPLARPPREKPFRCGECGKGFSRNTYLTNHLRLHTGERPNLCADCGKSFSWRADLLKHRRLHTGEKPYPCPECGEAFSLSSHLLSHRRAHAAASGAGAAALRPFACGECGKGFVRRSHLANHQRIHTGEKPHGCGECGKRFSWRSDLVKHQRVHTGEKPYMCSECGETFSVSSHLFTHKRTHSGERPYVCRECGKGFGRNSHLVNHLRVHTGEKPFRCGQCEKRFSDFSTLTQHQRTHTGEKPYTCIECGKSFIQSSHLIRHRRIHTGNKPHKCAGCGKGFRYKTHLAQHQKLHLC
B6: ZNF569 (protein, UniProt Q5MCW4 1-686)
chain: MTESQGTVTFKDVAIDFTQEEWKRLDPAQRKLYRNVMLENYNNLITVGYPFTKPDVIFKLEQEEEPWVMEEEVLRRHWQGEIWGVDEHQKNQDRLLRQVEVKFQKTLTEEKGNECQKKFANVFPLNSDFFPSRHNLYEYDLFGKCLEHNFDCHNNVKCLMRKEHCEYNEPVKSYGNSSSHFVITPFKCNHCGKGFNQTLDLIRHLRIHTGEKPYECSNCRKAFSHKEKLIKHYKIHSREQSYKCNECGKAFIKMSNLIRHQRIHTGEKPYACKECEKSFSQKSNLIDHEKIHTGEKPYECNECGKAFSQKQSLIAHQKVHTGEKPYACNECGKAFPRIASLALHMRSHTGEKPYKCDKCGKAFSQFSMLIIHVRIHTGEKPYECNECGKAFSQSSALTVHMRSHTGEKPYECKECRKAFSHKKNFITHQKIHTREKPYECNECGKAFIQMSNLVRHQRIHTGEKPYICKECGKAFSQKSNLIAHEKIHSGEKPYECNECGKAFSQKQNFITHQKVHTGEKPYDCNECGKAFSQIASLTLHLRSHTGEKPYECDKCGKAFSQCSLLNLHMRSHTGEKPYVCNECGKAFSQRTSLIVHMRGHTGEKPYECNKCGKAFSQSSSLTIHIRGHTGEKPFDCSKCGKAFSQISSLTLHMRKHTGEKPYHCIECGKAFSQKSHLVRHQRIHTH
B7: ZNF550 (protein, UniProt Q7Z398 1-422)
chain: MAETKDAAQMLVTFKDVAVTFTREEWRQLDLAQRTLYREVMLETCGLLVSLGHRVPKPELVHLLEHGQELWIVKRGLSHATCAGDRAQVHTREPTTYPPVLSERAFLRGSLTLESSTSSDSRLGRARDEEGLLEMQKGKVTPETDLHKETHLGKVSLEGEGLGTDDGLHSRALQEWLSADVLHECDSQQPGKDALIHAGTNPYKCKQCGKGFNRKWYLVRHQRVHTGMKPYECNACGKAFSQSSTLIRHYLIHTGEKPYKCLECGKAFKRRSYLMQHHPIHTGEKPYECSQCRKAFTHRSTFIRHNRTHTGEKPFECKECEKAFSNRAHLIQHYIIHTGEKPYDCMACGKAFRCSSELIQHQRIHTGEKPYECTQCGKAFHRSTYLIQHSVIHTGEMPYKCIECGKAFKRRSHLLQHQRVHT

biological target: T1, TRIM28-K304Q (endogenous, knock-in K562 clone Q1) (human (endogenous in K562)) (UniProt Q13263); test: affinity purification with mass spectrometry; IP of endogenous TRIM28 or TRIM28-K304Q from K562 cells with anti-TRIM28-N-conjugated protein A beads; washed, eluted with the antibody-generating peptide; MS (LTQ-Orbitrap Velos, Mascot)
T1 sequence: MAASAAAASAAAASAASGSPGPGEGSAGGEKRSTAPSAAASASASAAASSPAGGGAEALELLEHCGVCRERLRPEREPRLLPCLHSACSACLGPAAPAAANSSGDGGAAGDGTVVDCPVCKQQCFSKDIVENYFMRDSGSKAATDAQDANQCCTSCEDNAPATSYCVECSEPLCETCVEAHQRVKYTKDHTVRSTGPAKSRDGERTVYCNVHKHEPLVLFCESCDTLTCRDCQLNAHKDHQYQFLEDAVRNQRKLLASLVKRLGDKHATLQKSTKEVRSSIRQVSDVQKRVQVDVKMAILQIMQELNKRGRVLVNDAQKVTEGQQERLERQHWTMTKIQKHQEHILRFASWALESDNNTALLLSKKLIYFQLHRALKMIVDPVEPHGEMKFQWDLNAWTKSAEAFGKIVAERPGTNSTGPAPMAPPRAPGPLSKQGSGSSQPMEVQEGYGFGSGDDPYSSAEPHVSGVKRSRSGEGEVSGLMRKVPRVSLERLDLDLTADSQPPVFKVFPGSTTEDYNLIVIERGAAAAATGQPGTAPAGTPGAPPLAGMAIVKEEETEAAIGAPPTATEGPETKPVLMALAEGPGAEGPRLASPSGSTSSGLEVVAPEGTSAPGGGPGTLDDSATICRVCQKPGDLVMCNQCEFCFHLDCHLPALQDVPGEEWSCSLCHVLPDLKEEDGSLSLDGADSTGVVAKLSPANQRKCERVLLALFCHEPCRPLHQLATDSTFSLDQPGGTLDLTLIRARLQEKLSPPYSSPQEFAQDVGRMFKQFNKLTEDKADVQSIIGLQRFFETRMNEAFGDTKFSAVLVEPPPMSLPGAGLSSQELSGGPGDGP

binding, binds:
B1

biological target: wild-type TRIM28 (endogenous, K562 cells) (human (endogenous in K562)) (UniProt Q13263); test: as above

binding, binds:
B2, B1, B3, B4, B5, B6, B7
